Tested on: HEp2 cells
Experiment: Cellular imaging of live cells (uptake and localization)
Assay type: cell-based
Conditions: fluorescence imaging
Excerpt: There was a strong signal from the endoplasmic reticulum, and a smaller signal from mitochondria. […] No obvious staining of the plasma membrane was seen. However, since the plasma membrane has a large surface area, a relatively low surface signal might not have been detected. Three different filter sets, DAPI, FITC, and Texas Red, were used to select for wavelengths corresponding to the blue, green, and red emissions of SNAFR-2, respectively. […] However, autofluorescence was minimal with the longer wavelength filter sets, FITC and Texas Red.

O=c1ccc2c(-c3ccccc3)c3ccc4cc(O)ccc4c3oc-2c1 [SNAFR-2]
subcellular localization: appeared to localize in lipophilic compartments

O=c1ccc2c(-c3ccccc3)c3cc4ccc(O)cc4cc3oc-2c1 [SNAFR-6]
subcellular localization: most of the compound's signal co-localized with the endoplasmic reticulum (ER)

Reference: patent US8350064B2, “Fluorescent xanthenes and white light fluorophores” (Board of Supervisors of Louisiana State University And …, priority 2006, dated 2013)
